Data from patent publication US10544202B2, “Mutant proteins and methods for their production” (Medical Research Council, priority 2013, dated 2020).
Not every entry of the source has a single result; some have several. The list is limited to them. There may be further records. Values that stand side by side differ, and nothing given here explains why; dose, time, organism, isomer or construct need not be as stated for each record.

Chains of the proteins cited; added tags and fusions are not shown.
UniProt P31652, whole entry: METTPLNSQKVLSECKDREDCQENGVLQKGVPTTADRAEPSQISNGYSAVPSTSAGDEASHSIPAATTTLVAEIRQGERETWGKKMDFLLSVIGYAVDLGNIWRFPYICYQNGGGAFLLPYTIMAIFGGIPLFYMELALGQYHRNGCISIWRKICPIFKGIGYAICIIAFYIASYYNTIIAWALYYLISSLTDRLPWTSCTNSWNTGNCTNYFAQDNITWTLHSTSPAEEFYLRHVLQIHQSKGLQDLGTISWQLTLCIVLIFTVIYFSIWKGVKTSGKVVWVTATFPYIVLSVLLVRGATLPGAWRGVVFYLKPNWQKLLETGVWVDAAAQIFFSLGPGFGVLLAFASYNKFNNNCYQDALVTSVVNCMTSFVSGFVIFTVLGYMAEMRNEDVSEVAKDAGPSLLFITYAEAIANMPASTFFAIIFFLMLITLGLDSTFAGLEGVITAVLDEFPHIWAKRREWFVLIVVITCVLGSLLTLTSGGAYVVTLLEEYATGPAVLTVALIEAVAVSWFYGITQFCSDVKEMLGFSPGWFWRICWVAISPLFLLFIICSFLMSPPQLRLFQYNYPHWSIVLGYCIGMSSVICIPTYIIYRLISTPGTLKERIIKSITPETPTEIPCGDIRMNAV

Target: wild-type SERT (Rattus norvegicus, UniProt P31652)
Assay: [125I]-RTI55 saturation binding on membranes, wild-type SERT
Conditions: read-out: apparent KD for [125I]-RTI55 binding, tested as the radiolabelled form

Q: `COC(=O)[C@H]1[C@@H](c2ccc(I)cc2)C[C@@H]2CC[C@H]1N2C` was tested. Which Kd did it give?
A: Its Kd is 1.6 nM and 3.7 nM.
